From paper PMC8033514
These are yes or no findings as the source states them, for the method shown. Binding seen in cells or lysates may run through a third protein. Some entries that bind do so weakly or less than the wild type. Where a sequence is shown, tags or fusion partners need not be part of it.

T1: Flag-LDB2 (wild type) (human) (UniProt O43679)
T1 sequence: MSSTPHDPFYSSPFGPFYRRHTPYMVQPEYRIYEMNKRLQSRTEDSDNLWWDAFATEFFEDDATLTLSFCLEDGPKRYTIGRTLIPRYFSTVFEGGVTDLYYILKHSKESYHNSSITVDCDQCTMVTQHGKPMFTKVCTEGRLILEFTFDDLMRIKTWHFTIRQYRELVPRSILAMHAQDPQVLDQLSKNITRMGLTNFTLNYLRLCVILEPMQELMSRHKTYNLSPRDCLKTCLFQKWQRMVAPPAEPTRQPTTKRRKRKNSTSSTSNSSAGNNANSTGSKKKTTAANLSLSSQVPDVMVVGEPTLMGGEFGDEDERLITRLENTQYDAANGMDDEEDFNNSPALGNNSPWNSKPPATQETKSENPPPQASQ

T2: Flag-LDB2 T83N (human) (UniProt O43679)
T2 sequence: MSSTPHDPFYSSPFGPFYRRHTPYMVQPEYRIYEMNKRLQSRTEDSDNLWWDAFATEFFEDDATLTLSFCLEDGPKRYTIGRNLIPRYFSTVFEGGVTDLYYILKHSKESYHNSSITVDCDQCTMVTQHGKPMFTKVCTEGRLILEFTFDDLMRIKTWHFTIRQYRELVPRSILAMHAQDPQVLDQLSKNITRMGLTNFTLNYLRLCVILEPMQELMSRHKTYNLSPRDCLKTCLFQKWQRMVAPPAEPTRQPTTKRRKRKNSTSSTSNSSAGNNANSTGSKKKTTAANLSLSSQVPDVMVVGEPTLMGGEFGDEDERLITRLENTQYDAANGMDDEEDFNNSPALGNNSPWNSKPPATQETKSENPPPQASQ

T3: Flag-LDB2 P170L (human) (UniProt O43679)
T3 sequence: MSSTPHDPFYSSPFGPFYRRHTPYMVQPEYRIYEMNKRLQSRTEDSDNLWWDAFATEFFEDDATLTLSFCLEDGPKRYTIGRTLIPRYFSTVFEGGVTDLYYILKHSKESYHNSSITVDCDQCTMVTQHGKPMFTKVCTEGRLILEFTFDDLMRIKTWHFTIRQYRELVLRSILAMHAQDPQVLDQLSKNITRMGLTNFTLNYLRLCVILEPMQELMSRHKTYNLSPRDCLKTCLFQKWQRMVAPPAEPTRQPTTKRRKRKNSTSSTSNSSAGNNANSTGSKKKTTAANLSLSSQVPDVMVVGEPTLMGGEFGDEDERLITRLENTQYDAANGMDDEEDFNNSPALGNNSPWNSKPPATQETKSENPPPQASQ

B1: Flag-LDB2 (wild type) (protein, UniProt O43679 1-373)
chain: MSSTPHDPFYSSPFGPFYRRHTPYMVQPEYRIYEMNKRLQSRTEDSDNLWWDAFATEFFEDDATLTLSFCLEDGPKRYTIGRTLIPRYFSTVFEGGVTDLYYILKHSKESYHNSSITVDCDQCTMVTQHGKPMFTKVCTEGRLILEFTFDDLMRIKTWHFTIRQYRELVPRSILAMHAQDPQVLDQLSKNITRMGLTNFTLNYLRLCVILEPMQELMSRHKTYNLSPRDCLKTCLFQKWQRMVAPPAEPTRQPTTKRRKRKNSTSSTSNSSAGNNANSTGSKKKTTAANLSLSSQVPDVMVVGEPTLMGGEFGDEDERLITRLENTQYDAANGMDDEEDFNNSPALGNNSPWNSKPPATQETKSENPPPQASQ
B2: HA-LHX2 (protein, UniProt P50458 1-406)
chain: MLFHSLSGPEVHGVIDEMDRRAKSEAPAISSAIDRGDTETTMPSISSDRAALCAGCGGKISDRYYLLAVDKQWHMRCLKCCECKLNLESELTCFSKDGSIYCKEDYYRRFSVQRCARCHLGISASEMVMRARDLVYHLNCFTCTTCNKMLTTGDHFGMKDSLVYCRLHFEALLQGEYPAHFNHADVAAAAAAAAAAKSAGLGAAGANPLGLPYYNGVGTVQKGRPRKRKSPGPGADLAAYNAALSCNENDAEHLDRDQPYPSSQKTKRMRTSFKHHQLRTMKSYFAINHNPDAKDLKQLAQKTGLTKRVLQVWFQNARAKFRRNLLRQENTGVDKSTDAALQTGTPSGPASELSNASLSPSSTPTTLTDLTSPTLPTVTSVLTSVPGNLEGHEPHSPSQTTLTNLF
B3: HA-LMO3 (protein, UniProt Q8TAP4 1-145)
chain: MLSVQPDTKPKGCAGCNRKIKDRYLLKALDKYWHEDCLKCACCDCRLGEVGSTLYTKANLILCRRDYLRLFGVTGNCAACSKLIPAFEMVMRAKDNVYHLDCFACQLCNQRFCVGDKFFLKNNMILCQTDYEEGLMKEGYAPQVR
B4: HA-SSBP2 (protein, UniProt P81877 1-361)
chain: MYGKGKSNSSAVPSDSQAREKLALYVYEYLLHVGAQKSAQTFLSEIRWEKNITLGEPPGFLHSWWCVFWDLYCAAPERRETCEHSSEAKAFHDYSAAAAPSPVLGNIPPGDGMPVGPVPPGFFQPFMSPRYPGGPRPPLRIPNQALGGVPGSQPLLPSGMDPTRQQGHPNMGGPMQRMTPPRGMVPLGPQNYGGAMRPPLNALGGPGMPGMNMGPGGGRPWPNPTNANSIPYSSASPGNYVGPPGGGGPPGTPIMPSPADSTNSGDNMYTLMNAVPPGPNRPNFPMGPGSDGPMGGLGGMESHHMNGSLGSGDMDSISKNSPNNMSLSNQPGTPRDDGEMGGNFLNPFQSESYSPSMTMSV
B5: HA-SSBP3 (protein, UniProt Q9BWW4 1-388)
chain: MFAKGKGSAVPSDGQAREKLALYVYEYLLHVGAQKSAQTFLSEIRWEKNITLGEPPGFLHSWWCVFWDLYCAAPERRDTCEHSSEAKAFHDYSAAAAPSPVLGNIPPNDGMPGGPIPPGFFQGPPGSQPSPHAQPPPHNPSSMMGPHSQPFMSPRYAGGPRPPIRMGNQPPGGVPGTQPLLPNSMDPTRQQGHPNMGGSMQRMNPPRGMGPMGPGPQNYGSGMRPPPNSLGPAMPGINMGPGAGRPWPNPNSANSIPYSSSSPGTYVGPPGGGGPPGTPIMPSPADSTNSSDNIYTMINPVPPGGSRSNFPMGPGSDGPMGGMGGMEPHHMNGSLGSGDIDGLPKNSPNNISGISNPPGTPRDDGELGGNFLHSFQNDNYSPSMTMSV
B6: HA-SSBP4 (protein, UniProt Q9BWG4 1-385)
chain: MYAKGGKGSAVPSDSQAREKLALYVYEYLLHIGAQKSAQTFLSEIRWEKNITLGEPPGFLHSWWCVFWDLYCAAPDRREACEHSGEAKAFQDYSAAAAPSPVMGSMAPGDTMAAGSMAAGFFQGPPGSQPSPHNPNAPMMGPHGQPFMSPRFPGGPRPTLRMPSQPPAGLPGSQPLLPGAMEPSPRAQGHPSMGGPMQRVTPPRGMASVGPQSYGGGMRPPPNSLAGPGLPAMNMGPGVRGPWASPSGNSIPYSSSSPGSYTGPPGGGGPPGTPIMPSPGDSTNSSENMYTIMNPIGQGAGRANFPLGPGPEGPMAAMSAMEPHHVNGSLGSGDMDGLPKSSPGAVAGLSNAPGTPRDDGEMAAAGTFLHPFPSESYSPGMTMSV
B7: HA-RLIM (wild type) (enzyme, UniProt Q9NVW2 1-624)
chain: MENSDSNDKGSGDQSAAQRRSQMDRLDREEAFYQFVNNLSEEDYRLMRDNNLLGTPGESTEEELLRRLQQIKEGPPPQNSDENRGGDSSDDVSNGDSIIDWLNSVRQTGNTTRSGQRGNQSWRAVSRTNPNSGDFRFSLEINVNRNNGSQNSENENEPSARRSSGENVENNSQRQVENPRSESTSARPSRSERNSTEALTEVPPTRGQRRARSRSPDHRRTRARAERSRSPLHPMSEIPRRSHHSISSQTFEHPLVNETEGSSRTRHHVTLRQQISGPELLSRGLFAASGTRNASQGAGSSDTAASGESTGSGQRPPTIVLDLQVRRVRPGEYRQRDSIASRTRSRSQTPNNTVTYESERGGFRRTFSRSERAGVRTYVSTIRIPIRRILNTGLSETTSVAIQTMLRQIMTGFGELSYFMYSDSDSEPTGSVSNRNMERAESRSGRGGSGGGSSSGSSSSSSSSSSSSSSSSSSSSPSSSSGGESSETSSDLFEGSNEGSSSSGSSGARREGRHRAPVTFDESGSLPFLSLAQFFLLNEDDDDQPRGLTKEQIDNLAMRSFGENDALKTCSVCITEYTEGNKLRKLPCSHEYHVHCIDRWLSENSTCPICRRAVLASGNRESVV
B8: HA-RLIM S455F (enzyme, UniProt Q9NVW2 1-624)
chain: MENSDSNDKGSGDQSAAQRRSQMDRLDREEAFYQFVNNLSEEDYRLMRDNNLLGTPGESTEEELLRRLQQIKEGPPPQNSDENRGGDSSDDVSNGDSIIDWLNSVRQTGNTTRSGQRGNQSWRAVSRTNPNSGDFRFSLEINVNRNNGSQNSENENEPSARRSSGENVENNSQRQVENPRSESTSARPSRSERNSTEALTEVPPTRGQRRARSRSPDHRRTRARAERSRSPLHPMSEIPRRSHHSISSQTFEHPLVNETEGSSRTRHHVTLRQQISGPELLSRGLFAASGTRNASQGAGSSDTAASGESTGSGQRPPTIVLDLQVRRVRPGEYRQRDSIASRTRSRSQTPNNTVTYESERGGFRRTFSRSERAGVRTYVSTIRIPIRRILNTGLSETTSVAIQTMLRQIMTGFGELSYFMYSDSDSEPTGSVSNRNMERAESRSGRGGSGGGSSFGSSSSSSSSSSSSSSSSSSSSPSSSSGGESSETSSDLFEGSNEGSSSSGSSGARREGRHRAPVTFDESGSLPFLSLAQFFLLNEDDDDQPRGLTKEQIDNLAMRSFGENDALKTCSVCITEYTEGNKLRKLPCSHEYHVHCIDRWLSENSTCPICRRAVLASGNRESVV

How the values were obtained:
Assay in all cases: co-IP; HEK293T co-transfected with FLAG and HA constructs, 48 h; lysis buffer 25 mM Tris-HCl pH 7.8, 125 mM NaCl, 1% Triton X-100, 0.5 mM EDTA; Flag-LDB2 captured with anti-Flag antibody on Protein G-Sepharose, 3 h; Western blot with anti-Flag and anti-HA
[1] = target: T1, Flag-LDB2 (wild type) (human)
[2] = target: T2, Flag-LDB2 T83N (human)
[3] = target: T3, Flag-LDB2 P170L (human)

binding [1] | binding [2] | binding [3] | Binder
binds | binds | binds | B1
binds | binds | binds | B2
binds | binds | binds | B3
binds |  |  | B4
binds |  |  | B5
binds |  |  | B6
binds | binds | binds | B7
binds |  |  | B8
